## Library screening results

Chains of the proteins cited; added tags and fusions are not shown.
UniProt E9BF75, entry or part of it: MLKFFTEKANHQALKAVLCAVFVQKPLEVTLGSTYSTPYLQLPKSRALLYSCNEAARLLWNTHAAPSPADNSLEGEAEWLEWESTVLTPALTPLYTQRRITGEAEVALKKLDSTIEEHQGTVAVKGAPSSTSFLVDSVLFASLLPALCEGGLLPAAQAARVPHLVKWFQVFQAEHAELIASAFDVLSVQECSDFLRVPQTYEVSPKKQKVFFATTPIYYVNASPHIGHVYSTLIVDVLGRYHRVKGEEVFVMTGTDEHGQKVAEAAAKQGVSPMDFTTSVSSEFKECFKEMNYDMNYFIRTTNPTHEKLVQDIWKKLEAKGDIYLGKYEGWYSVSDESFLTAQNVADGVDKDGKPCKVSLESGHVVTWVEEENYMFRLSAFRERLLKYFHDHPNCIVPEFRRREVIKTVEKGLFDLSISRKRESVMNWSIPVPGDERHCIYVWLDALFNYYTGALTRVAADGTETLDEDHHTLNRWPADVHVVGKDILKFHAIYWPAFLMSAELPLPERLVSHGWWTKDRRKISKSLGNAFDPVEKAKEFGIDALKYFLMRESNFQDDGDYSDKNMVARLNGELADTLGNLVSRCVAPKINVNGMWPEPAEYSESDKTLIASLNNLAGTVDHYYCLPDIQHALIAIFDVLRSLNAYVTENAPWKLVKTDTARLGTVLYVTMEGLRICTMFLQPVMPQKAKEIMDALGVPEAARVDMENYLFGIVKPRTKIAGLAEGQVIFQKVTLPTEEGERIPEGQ

Mtb heat-shock: 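Assay on Mycobacterium tuberculosis, filed only as a heat shock assay from Cornell; the read-out is not stated. The concentration is filed as 10 mM, unlikely as a test dose, so the dose is not known. Higher reads as stronger inhibition (inferred: compounds with an IC50 in retests scored well above the rest). Of about 69,000 compounds tested this way, about 930 (1.4%) reached 50% or more in at least one test.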
Mtb growth Cornell: 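Whole-cell assay for inhibitors of Mycobacterium tuberculosis growth, labelled Cornell in the record; the read-out is not stated. The concentration is filed as 10 mM, unlikely as a test dose, so the dose is not known. The record gives no direction; compounds strong in two other growth screens of this library score well above the rest, so higher reads as stronger inhibition. Size under these conditions: about 53,000 compounds, about 900 of them at 50% or above in at least one test.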
LdMetRS: 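Methionyl-tRNA synthetase (putative), Leishmania donovani (UniProt E9BF75). Primary screen of methionyl-tRNA synthetase; the read-out is not stated. The test concentration is not given. The values are filed as inhibition. Size under these conditions: about 68,000 compounds, about 24 of them at 50% or above in at least one test.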

All values are in %. The record does not define 0% and 100%; most values in the screen are far below 50% and negative numbers occur (in some assays of this library far below -100). Compounds were drawn at random from those tested, without regard to their results. A dash means the value is not listed here; it may have been measured.

structure	Mtb heat-shock	Mtb growth Cornell	LdMetRS
CC(C)NC(=O)c1ccc2c(c1)nc1n2CCN(Cc2ccco2)C1	-0.1947	17.74	22.1
O=C(NCCCN1CCC(OC2CCCCC2)CC1)C1CCCC1	-0.9664	-22.77	1.902
Cc1noc(C)c1CN1CCN(Cc2ccncc2)c2ncccc2C1.O=C(O)C(F)(F)F.O=C(O)C(F)(F)F.O=C(O)C(F)(F)F	9.653	-	-
C=C(C)CN1CCC(c2n[nH]c(C3CC3)n2)CC1	-20.53	-18.49	8.211
Cc1nn(CC(F)F)c2c1c(C(F)F)cc(=O)n2CC(=O)O	-8.841	-	-8.291
C1CC(CN2CCc3c(nnn3CC3CC3)C2COCC2CC2)C1 (stereo not shown)	-	-	5.882
Cn1cc(CN2CCO[C@@H]3CN(Cc4ccoc4)C[C@@H]3C2)cn1	-	-	13.48
Cn1ccnc1NC[C@@H]1CCC[C@@H]2CN(Cc3nccs3)C[C@@H]21	-	-	16.3
CC(=O)N1CCN(C(=O)CNc2c(C)cccc2OC(F)F)CC1	25.58	-64.46	8.696
Cc1ccc(-n2nc(C)cc2N)nn1	-11.29	19.87	22.1
CC1CCN(C(=O)c2cnc(CC3CCCN(C)C3)cn2)CC1 (stereo not shown)	-2.124	-8.51	14.24
CC1CCN(CC(=O)NC(C#N)c2cnn(-c3ccccc3)c2)CC1 (stereo not shown)	-8.882	9.106	8.333
O=C(CCCN1CCCCC1)NC(C(=O)O)c1cccc(F)c1 (stereo not shown)	-3.716	-	12.04
O=C(c1cccnc1O)N1CCN(CCc2cccs2)CC1	3.025	-	13.22
Cc1ccc(CN2CC[C@@H]3[C@H]2CCC(=O)N3Cc2ccncc2)s1	-	-	8.571
Cc1nc(CN2CCCN(C(=O)CC(C)n3cccc3)CC2)cs1 (stereo not shown)	12.6	7.748	9.044
O=C(O)c1cc2c(nc1-c1ccsc1)CCN(C(=O)C1CC1)CC2	-	-	9.783
C[C@@H]1CN(C(=O)CCc2cnn(C)c2)C[C@@]1(O)C1CCC1	9.404	24.98	9.946
CC(C)CCNC(=O)Cc1cnc(-n2cccc2)s1	-2.465	43.51	16.43
CCN1CCOC(CNCc2ccccn2)C1 (stereo not shown)	-27.91	16.08	9.449
CC(C)c1nccn1C1CCCN(C(=O)c2cn3cccnc3n2)C1 (stereo not shown)	0.9566	-12.7	13.11
O=C(c1cc(F)ccc1F)C1CCN(C(=O)c2ccc(=O)[nH]n2)CC1	8.764	-	15.28
CCc1nccn1C1CCCN(C(=O)c2ccc(NC3CC3)nc2)C1 (stereo not shown)	-15.05	-	11.48
CCn1c(CN(C)Cc2cnc(C)s2)nc2cc(F)ccc21	-9.437	-1.7	3.333
CC(C)NC(=O)N1CCC2(CCC(=O)N2CCN(C)C)CC1	-	-	17.37
CN(Cc1cccc2cccnc12)C1CCS(=O)(=O)C1.O=C(O)CC(O)(CC(=O)O)C(=O)O (stereo not shown)	-10.77	-8.637	-
CC1CCN(S(=O)(=O)c2cccn(CC(=O)NC3CCCC3)c2=O)CC1	-16.14	-45.68	12.32
O=C(N[C@H]1CN(Cc2cccs2)[C@@H]2CCCO[C@H]12)c1cccnc1	-	-	8.889
CCN(CC(=O)NC)C(=O)Cc1nc(-c2ccco2)oc1C	5.334	15.23	18.54
Cn1nc(C2CN(C(=O)c3cscn3)C2)c2nccnc21	-6.685	11.93	16.1
CN(C)C(=O)CN1CCC2(CC1)COc1ccccc1S(=O)(=O)N(C)C2	-	-	16.75
CN(CCC(O)c1ccccc1)Cc1ccccc1C#N (stereo not shown)	79.67	-5.755	9.722
c1cc(-c2nc(C3CCN(Cc4ccsc4)CC3)no2)ccn1	-7.061	-61.7	0
O=C(Cc1ccccc1F)NCC1CCN(CCN2CCOCC2)C1 (stereo not shown)	-4.978	22.51	5.897
Cc1noc([C@@H]2C[C@H]3OCC[C@H]3N(S(C)(=O)=O)C2)n1	-	-	16.5
O=C(O)C(F)(F)F.OCCOCc1n[nH]c2c1CN(Cc1ccccn1)C2	4.204	5.443	-
Fc1ccccc1-c1nnn(CCCc2nn[nH]n2)n1	0.8506	-	2.762
CS(=O)(=O)N1Cc2nc(C(=O)NCc3ccccc3)oc2C1	2.726	22.32	7.971
CSc1ccsc1C(=O)NC(C)c1ccc2c(c1)CCC(=O)N2 (stereo not shown)	3.91	29.58	15.25
CC(=O)NCCNC(=O)Nc1cccc(Cl)c1SC(F)F	-2.18	16.87	6.522
CC(C)C1CN(C(=O)c2cc(C3CC3)n[nH]2)CCC(=O)N1CC1CC1 (stereo not shown)	-8.93	18.77	10.43
COc1cccc(CCNS(=O)(=O)c2ccc(NC(C)=O)cc2)c1	13.91	-26.83	18.31
CC(Cn1cccn1)C(=O)N1CCCN(Cc2cscn2)CC1 (stereo not shown)	24.02	12.74	6.977
Cc1cccc(C)c1NCc1noc(C2CC2)n1	-0.9007	16.76	18.75
[H][C@]12CCN(C(C)=O)[C@@]1([H])CC[C@H](COCc1csc(C)n1)O2	-15.19	-23.4	-
CC(CC(=O)NS(C)(=O)=O)C1CCCCC1 (stereo not shown)	-1.865	-16.66	15.99
CC(=O)c1cn(CCC(=O)Nc2c3c(nn2C)CSC3)c2ccccc12	2.767	16.44	9.115
Cn1cc(N2CCC(NC(=O)c3ccccc3F)C2=O)cn1 (stereo not shown)	19.78	-	6.406
O=C1[C@H]2CC[C@H](CN(C3CCOCC3)C2)N1Cc1cscn1	-	-	8.934
Cc1ccc(CNC(C)c2ccc(N3CCN(C)CC3)c(F)c2)o1.Cl (stereo not shown)	-37.36	13.83	-
Cc1cccc(CN2C[C@H](OCc3ccccn3)[C@H]3COC[C@H]32)n1	-	-	8.786
COCC(=O)N1CCC2(CC1)CN(c1cncnc1)C(=O)CO2	-2.923	-7.031	2.985
CC(C)CC(=O)N1CC[C@H]2N(C)CC[C@@]2(C(=O)Nc2ccccc2)CC1	-	-	1.441
CNC(=O)[C@@H]1COC[C@H]2CN(C(=O)c3ccc(C)c(F)c3)C[C@H]21	-	-	12.8
COCCn1cc(NCc2cn(C)nc2-c2ccncc2)cn1	-12.81	-26.97	6.425
CCn1cc(CN2CCCN(C(=O)CCc3cccs3)CC2)cn1	-0.4151	-2.282	12.25
COCCCn1ccc(NS(=O)(=O)c2cc(C)c(F)cc2F)n1	-1.977	4.504	12.83
CCc1nc2c(c(NC3CC3)n1)CCN(C(=O)Cc1nonc1C)CC2	-17.7	13.48	13.56
Cc1cc(C)cc(NS(=O)(=O)c2cc3c(c(C(=O)O)c2)OCCO3)c1	-1.093	-	14.58
O=C(NCc1cn2c(n1)CN(Cc1ccccn1)CC2)C1CCC1	-	-	10.37
COCCN1C(=O)CC[C@]12CC[C@@H](NCc1nccs1)CC2.O=C(O)C(F)(F)F	4.764	-9.092	-

3 of the entries, repeated:

[H][C@]12CCN(C(C)=O)[C@@]1([H])CC[C@H](COCc1csc(C)n1)O2 gave Mtb heat-shock: -15.19%; Mtb growth Cornell: -23.4%.
Cc1ccc(CNC(C)c2ccc(N3CCN(C)CC3)c(F)c2)o1.Cl (stereo not shown) gave Mtb heat-shock: -37.36%; Mtb growth Cornell: 13.83%.
CSc1ccsc1C(=O)NC(C)c1ccc2c(c1)CCC(=O)N2 (stereo not shown) gave Mtb heat-shock: 3.91%; Mtb growth Cornell: 29.58%; LdMetRS: 15.25%.

The values are deposited in ChEMBL (CHEMBL3988442, “University of Dundee, Small-Polar-MMV Screening Library” (2021)).